PubChem BioAssay AID1259308 – NCATS, 2017

Assay: 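Genes whose loss raises luciferase production in HEK293 cells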 (primary screen)
System: human HEK293 embryonic kidney cells stably expressing firefly luciferase (HEK-CMV-Luc2-Hygro)
Reagents: single siRNA against human genes, 0.8 pmol siRNA per well
Time to read-out: 72 h
Read-out: 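Reporter luminescence and viable-cell signal on separate replicate plates, given as percent of non-targeting control and median/MAD z-scores, plus per-cell luciferase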
Direction: total luciferase, z-score and total luciferase, % of control: higher = more reporter protein produced
Call rule: 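Active when the median/MAD z-score for overall luciferase is greater than 3; a gene was taken forward for validation with new siRNAs if at least two of its three siRNAs passed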
Calls: active = raised luciferase; inactive = no rise
The deposit covers about 59,000 reagents; this is an unselected part. About 1,510 of them (2.6%) were called active. 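Calls use total luciferase alone and ignore viability, so some active siRNAs may act by altering cell number.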 Reagents against one gene are numbered here. Further read-outs or replicates are left out here. Reagent sequences are not shown.

Gene	siRNA no.	total luciferase, z-score	total luciferase, % of control	activity call
TEX50	1	-0.98	62.4	inactive
TEX50	2	-0.62	69.6	inactive
TEX50	3	-2.02	41.7	inactive
PAF1	1	0.0464	82.8	inactive
PAF1	2	-0.125	79.4	inactive
PAF1	3	-0.862	64.7	inactive
VPS25	1	-0.152	78.9	inactive
VPS25	2	-0.139	79.1	inactive
VPS25	3	0.159	85	inactive
PCYT1A	1	0.876	99.3	inactive
PCYT1A	2	0.73	96.4	inactive
PCYT1A	3	-0.798	66	inactive
RGS9	1	-0.739	67.2	inactive
RGS9	2	1.23	106	inactive
RGS9	3	-0.157	78.8	inactive
LPXN	1	-0.418	73.6	inactive
LPXN	2	1.2	106	inactive
LPXN	3	-1.06	60.8	inactive
ZNF441	1	2.83	138	inactive
ZNF441	2	0.0793	83.5	inactive
ZNF441	3	-0.101	79.9	inactive
AVPR2	1	0.327	88.4	inactive
AVPR2	2	-1.21	57.9	inactive
AVPR2	3	-1.22	57.7	inactive
SEC11B	1	0.189	85.7	inactive
SEC11B	2	-1.69	48.3	inactive
SEC11B	3	0.291	87.7	inactive
GDNF	1	0.438	90.6	inactive
GDNF	2	0.205	86	inactive
GDNF	3	0.709	96	inactive
STX10	1	-1.64	49.3	inactive
STX10	2	-0.564	70.7	inactive
STX10	3	1.29	107	inactive
AP5M1	1	3.47	151	active
AP5M1	2	-0.755	66.9	inactive
AP5M1	3	0.938	101	inactive
SRPX	1	-0.413	73.7	inactive
SRPX	2	-0.661	68.7	inactive
SRPX	3	-0.43	73.3	inactive

Individual results from the list.
Entry for TEX50 #2 in “activity call”: inactive
Value of GDNF #3 under “total luciferase, % of control”: 96
For “activity call”, PAF1 #1 shows inactive
For “activity call”, AP5M1 #3 has inactive
Result of TEX50 #1 under “total luciferase, % of control”: 62.4
SRPX #3, activity call = inactive
